Record: PubChem BioAssay AID1259405 (NCATS, 2018)

- Purpose: 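Mouse-designed siRNAs used to find CHO productivity engineering targets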 (primary screen)
- Cell system: Chinese hamster CHO-K1 ovary cells with stable secreted eGFP expression
- Reagent: single siRNA against mouse genes, 0.8 pmol siRNA per well (2 µl of 400 nM stock)
- Timing: 3 days
- Detection: 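Percent of the per-plate non-targeting control median for intracellular GFP per well by laser scanning cytometry and for cell viability by ATP luminescence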
- Scale: GFP, % of control: higher = more GFP per well, higher productivity; viability (ATP), % of control: higher = more viable cells (more ATP)
- Hit rule: 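Called active when intracellular GFP, relative to negative control, is at or above 120%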
In all, the deposit lists about 50,000 reagents; this is an unselected part. About 4,000 of them (8%) were called active. 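Mouse siRNA library applied to hamster cells; one well for each siRNA.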 Unmarked entries are inactive. Reagents against one gene are numbered here. No sequences are given here.

target gene	siRNA no.	GFP, % of control	viability (ATP), % of control
Auh (GeneID 11992)	1	61.5	79.5
Auh (GeneID 11992)	2	67.4	49
Auh (GeneID 11992)	3	85.9	98.9
Hes1 (GeneID 15205)	1	94.1	76.6
Hes1 (GeneID 15205)	2	106	88.3
Poc5 (GeneID 67463)	1	77.9	91.1
Poc5 (GeneID 67463)	2	66.7	79.5
Poc5 (GeneID 67463)	3	33.9	15.9
Krtap3-2 (GeneID 66708)	1	60.5	71.1
Krtap3-2 (GeneID 66708)	2	43.5	55.3
Krtap3-2 (GeneID 66708)	3	42	60.6
Mmd (GeneID 67468)	1	79.9	85.1
Mmd (GeneID 67468)	2	73.9	88.3
Mmd (GeneID 67468)	3	73.8	83.8
V1rg10 (GeneID 171266)	1	96.3	65.9
V1rg10 (GeneID 171266)	2	66	88.4
V1rg10 (GeneID 171266)	3	60.8	60.5
Gnb5 (GeneID 14697)	1	143 (active)	88.1
Gnb5 (GeneID 14697)	2	103	78.6
Gnb5 (GeneID 14697)	3	23	19.7
Nckap1l (GeneID 105855)	1	64.7	68.3
Nckap1l (GeneID 105855)	2	68	82.6
Nckap1l (GeneID 105855)	3	118	98.8
Rftn1 (GeneID 76438)	1	51.1	49.4
Rftn1 (GeneID 76438)	2	29.8	26.1
Rftn1 (GeneID 76438)	3	90.7	91.3
Tcp11x2 (GeneID 71841)	1	89.8	86.7
Tcp11x2 (GeneID 71841)	2	81.9	82.1
Tcp11x2 (GeneID 71841)	3	105	97.2
Abhd17c (GeneID 70178)	1	68.6	52.9
Abhd17c (GeneID 70178)	2	63.4	64.9
Abhd17c (GeneID 70178)	3	78.9	64.9
Myh11 (GeneID 17880)	1	82.4	76.1
Myh11 (GeneID 17880)	2	99.4	113
Or5bw2 (GeneID 258384)	1	85.7	64.1
Or5bw2 (GeneID 258384)	2	85.1	91
Or5bw2 (GeneID 258384)	3	118	87.3
Tex56 (GeneID 66761)	1	64.9	78.3
Tex56 (GeneID 66761)	2	59.9	84.8
Tex56 (GeneID 66761)	3	95.4	113
Cdk5 (GeneID 12568)	1	178 (active)	81.9
Cdk5 (GeneID 12568)	2	163 (active)	84
Cdk5 (GeneID 12568)	3	96.8	82.7
Cdk5 (GeneID 12568)	4	128 (active)	77.6
Ints2 (GeneID 70422)	1	70.7	57
Ints2 (GeneID 70422)	2	36.9	36.9
Ints2 (GeneID 70422)	3	77.6	70.8
Spsb1 (GeneID 74646)	1	93.6	94.4
Spsb1 (GeneID 74646)	2	66.7	78.6
Rnaseh1 (GeneID 19819)	1	40.3	36.9
Rnaseh1 (GeneID 19819)	2	98	100
Mcrs1 (GeneID 51812)	1	43	85.3
Mcrs1 (GeneID 51812)	2	40.7	90
Mcrs1 (GeneID 51812)	3	99.5	70.6
Zfp704 (GeneID 170753)	1	176 (active)	119
Zfp704 (GeneID 170753)	2	37.9	42.9
Zfp704 (GeneID 170753)	3	68.5	97.1

Entries above whose target name begins with R or r (5):
target gene	siRNA no.	GFP, % of control	viability (ATP), % of control
Rftn1 (GeneID 76438)	1	51.1	49.4
Rftn1 (GeneID 76438)	2	29.8	26.1
Rftn1 (GeneID 76438)	3	90.7	91.3
Rnaseh1 (GeneID 19819)	1	40.3	36.9
Rnaseh1 (GeneID 19819)	2	98	100
